# Source: the supplement of paper PMC8728848
# Some of the results follow.
# B1: Gal 12 (Homo sapiens), Q96DT0 (protein)
# chain: MSQPSGGRAPGTRIYSWSCPTVMSPGEKLDPIPDSFILQPPVFHPVVPYVTTIFGGLHAGKMVMLQGVVPLDAHRFQVDFQCGCSLCPRPDIAFHFNPRFHTTKPHVICNTLHGGRWQREARWPHLALRRGSSFLILFLFGNEEVKVSVNGQHFLHFRYRLPLSHVDTLGIFGDILVEAVGFLNINPFVEGSREYPAGHPFLLMSPRLEVPCSHALPQGLSPGQVIIVRGLVLQEPKHFTVSLRDQAAHAPVTLRASFADRTLAWISRWGQKKLISAPFLFYPQRFFEVLLLFQEGGLKLALNGQGLGATSMNQQALEQLRELRISGSVQLYCVHS
# What was measured:
# Experiment in all cases: glycan array binding signal (z-score within array); higher = stronger binding
# Details in all cases: glycan notation: IUPAC condensed, linker removed
# [1] = biological target: Gal(b1-4)GlcNAc(b1-2)Man(a1-3)[Gal(b1-4)GlcNAc(b1-2)Man(a1-6)]Man(b1-4)GlcNAc(b1-4)[Fuc(a1-6)]GlcNAc
# In short: (§1)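 Arrays were curated from the Consortium for Functional Glycomics database, 3228 in total, and kept only where the protein sequence was available. Binding is expressed as a within-array Z-score. This score was averaged across arrays of the same protein sequence at different concentrations or buffers and across linkers, and negative values can be read as non-binding.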
# [2] = biological target: Gal(b1-4)GlcNAc(b1-2)Man(a1-3)[Gal(b1-4)GlcNAc(b1-2)Man(a1-6)][Gal(b1-4)GlcNAc(b1-4)]Man(b1-4)GlcNAc(b1-4)[Fuc(a1-6)]GlcNAc
# In short: as §1
# [3] = biological target: Gal(b1-4)GlcNAc(b1-2)Man(a1-3)[Gal(b1-4)GlcNAc(b1-2)Man(a1-6)][GlcNAc(b1-4)]Man(b1-4)GlcNAc(b1-4)[Fuc(a1-6)]GlcNAc
# In short: as §1
# [4] = biological target: Gal(b1-4)GlcNAc(b1-2)Man(a1-3)[Gal(b1-4)GlcNAc(b1-2)][GlcNAc(b1-4)]Man(b1-4)GlcNAc(b1-4)GlcNAc
# In short: as §1
# [5] = biological target: Gal(b1-4)GlcNAc(b1-2)Man(a1-3)[GlcNAc(b1-2)Man(a1-6)]Man(b1-4)GlcNAc(b1-4)GlcNAc
# In short: as §1
# [6] = biological target: Gal(b1-4)GlcNAc(b1-2)Man(a1-3)[GlcNAc(b1-4)][Gal(b1-4)GlcNAc(b1-2)Man(a1-6)]Man(b1-4)GlcNAc(b1-4)GlcNAc
# In short: as §1
# [7] = biological target: Gal(b1-4)GlcNAc(b1-2)Man(a1-3)[Man(a1-6)]Man(b1-4)GlcNAc(b1-4)GlcNAc
# In short: as §1
# [8] = biological target: Gal(b1-4)GlcNAc(b1-2)Man(a1-6)Man(b1-4)GlcNAc(b1-4)GlcNAc
# In short: as §1
# [9] = biological target: Gal(b1-4)GlcNAc(b1-2)Man(a1-6)[GlcNAc(b1-2)Man(a1-3)]Man(b1-4)GlcNAc(b1-4)GlcNAc
# In short: as §1
# [10] = biological target: Gal(b1-4)GlcNAc(b1-2)Man(a1-6)[Man(a1-3)]Man(b1-4)GlcNAc(b1-4)GlcNAc
# In short: as §1
# [11] = biological target: Gal(b1-4)GlcNAc(b1-2)[Gal(b1-4)GlcNAc(b1-4)]Man(a1-3)[Gal(b1-4)GlcNAc(b1-2)Man(a1-6)]Man(b1-4)GlcNAc(b1-4)GlcNAc
# In short: as §1
# [12] = biological target: Gal(b1-4)GlcNAc(b1-2)[Gal(b1-4)GlcNAc(b1-4)]Man(a1-3)[Gal(b1-4)GlcNAc(b1-2)[Gal(b1-4)GlcNAc(b1-6)]Man(a1-6)]Man(b1-4)GlcNAc(b1-4)GlcNAc
# In short: as §1
# [13] = biological target: Gal(b1-4)GlcNAc(b1-2)[Gal(b1-4)GlcNAc(b1-4)]Man(a1-3)[GlcNAc(b1-4)][Gal(b1-4)GlcNAc(b1-2)Man(a1-6)]Man(b1-4)GlcNAc(b1-4)GlcNAc
# In short: as §1
# [14] = biological target: Gal(b1-4)GlcNAc(b1-2)[Gal(b1-4)GlcNAc(b1-4)]Man(a1-3)[GlcNAc(b1-4)][Gal(b1-4)GlcNAc(b1-2)[Gal(b1-4)GlcNAc(b1-6)]Man(a1-6)]Man(b1-4)GlcNAc(b1-4)GlcNAc
# In short: as §1
# [15] = biological target: Gal(b1-4)GlcNAc(b1-2)[Gal(b1-4)GlcNAc(b1-6)]Man(a1-6)[Gal(b1-4)GlcNAc(b1-2)Man(a1-3)]Man(b1-4)GlcNAc(b1-4)GlcNAc
# In short: as §1
# [16] = biological target: Gal(b1-4)GlcNAc(b1-2)[Gal(b1-4)GlcNAc(b1-6)]Man(a1-6)[Gal(b1-4)GlcNAc(b1-2)Man(a1-3)]Man(b1-4)GlcNAc(b1-4)[Fuc(a1-6)]GlcNAc
# In short: as §1
# [17] = biological target: Gal(b1-4)GlcNAc(b1-2)[Gal(b1-4)GlcNAc(b1-6)]Man(a1-6)[GlcNAc(b1-4)][Gal(b1-4)GlcNAc(b1-2)Man(a1-3)]Man(b1-4)GlcNAc(b1-4)GlcNAc
# In short: as §1
# [18] = biological target: Gal(b1-4)GlcNAc(b1-2)[Gal(b1-4)GlcNAc(b1-6)]Man(a1-6)[GlcNAc(b1-4)][Gal(b1-4)GlcNAc(b1-2)[Gal(b1-4)GlcNAc(b1-4)]Man(a1-3)]Man(b1-4)GlcNAc(b1-4)[Fuc(a1-6)]GlcNAc
# In short: as §1
# [19] = biological target: Gal(b1-4)GlcNAc(b1-3)Gal(b1-3)GalNAc
# In short: as §1
# [20] = biological target: Gal(b1-4)GlcNAc(b1-3)Gal(b1-3)GlcNAc
# In short: as §1
# [21] = biological target: Gal(b1-4)GlcNAc(b1-3)Gal(b1-4)Glc
# In short: as §1
# [22] = biological target: Gal(b1-4)GlcNAc(b1-3)Gal(b1-4)GlcNAc
# In short: as §1
binder,measurement,setting,value
B1,glycan array binding signal (z-score),[1],0.053
same,glycan array binding signal (z-score),[2],0.096
same,glycan array binding signal (z-score),[3],-0.028
same,glycan array binding signal (z-score),[4],-0.532
same,glycan array binding signal (z-score),[5],-0.341
same,glycan array binding signal (z-score),[6],-0.72
same,glycan array binding signal (z-score),[7],-0.648
same,glycan array binding signal (z-score),[8],0.391
same,glycan array binding signal (z-score),[9],-0.247
same,glycan array binding signal (z-score),[10],-0.571
same,glycan array binding signal (z-score),[11],0.86
same,glycan array binding signal (z-score),[12],-0.888
same,glycan array binding signal (z-score),[13],-0.457
same,glycan array binding signal (z-score),[14],-0.282
same,glycan array binding signal (z-score),[15],-0.529
same,glycan array binding signal (z-score),[16],1.75
same,glycan array binding signal (z-score),[17],-0.51
same,glycan array binding signal (z-score),[18],-0.581
same,glycan array binding signal (z-score),[19],0.396
same,glycan array binding signal (z-score),[20],0.043
same,glycan array binding signal (z-score),[21],-0.36
same,glycan array binding signal (z-score),[22],-0.226

# Quoted at random: 2 records from the list
binder,measurement,setting,value
B1,glycan array binding signal (z-score),[4],-0.532
same,glycan array binding signal (z-score),[9],-0.247
